This is one part of the list.
What was measured:
Assay in all cases: log2 fold change, soluble protein after heating vs DMSO (PISA); higher = thermal stabilisation; K562 cells, 10 uM, 30 min; active = over 0.2 and 3.5 SD of the protein, either way, in both replicates (recomputed)
[1] = compound: CC1=C(C=C(C=C1)NC(=O)C2=CC(=CC=C2)C(C)(C)C#N)NC3=CC4=C(C=C3)N=CN(C4=O)C
Method in brief: (§1)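 K562 cells at 2×10^6 cells/mL were treated with 10 μM compound for 30 min. Aliquots were heated for 3 min across 48°C-58°C, pooled, and extracted in PBS with 0.5% NP-40 at 4°C; soluble protein was the supernatant after 21,000xg for 90 min. Soluble protein was quantified by TMTpro 16plex LC-MS/MS with channel sums equalised, and reported as log2 fold change in thermal stability against DMSO controls, with values from duplicates.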

Sequences of proteins named here, by UniProt entry; tags and fusion partners are left off. A change or cut given only in a name is not applied to a line headed by its entry.
UniProt Q96BM9: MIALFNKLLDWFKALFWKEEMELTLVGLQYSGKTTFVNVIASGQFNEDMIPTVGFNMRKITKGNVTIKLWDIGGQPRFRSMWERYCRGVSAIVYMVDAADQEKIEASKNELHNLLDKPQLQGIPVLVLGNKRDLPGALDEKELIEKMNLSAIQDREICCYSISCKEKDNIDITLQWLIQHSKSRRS
UniProt P23634: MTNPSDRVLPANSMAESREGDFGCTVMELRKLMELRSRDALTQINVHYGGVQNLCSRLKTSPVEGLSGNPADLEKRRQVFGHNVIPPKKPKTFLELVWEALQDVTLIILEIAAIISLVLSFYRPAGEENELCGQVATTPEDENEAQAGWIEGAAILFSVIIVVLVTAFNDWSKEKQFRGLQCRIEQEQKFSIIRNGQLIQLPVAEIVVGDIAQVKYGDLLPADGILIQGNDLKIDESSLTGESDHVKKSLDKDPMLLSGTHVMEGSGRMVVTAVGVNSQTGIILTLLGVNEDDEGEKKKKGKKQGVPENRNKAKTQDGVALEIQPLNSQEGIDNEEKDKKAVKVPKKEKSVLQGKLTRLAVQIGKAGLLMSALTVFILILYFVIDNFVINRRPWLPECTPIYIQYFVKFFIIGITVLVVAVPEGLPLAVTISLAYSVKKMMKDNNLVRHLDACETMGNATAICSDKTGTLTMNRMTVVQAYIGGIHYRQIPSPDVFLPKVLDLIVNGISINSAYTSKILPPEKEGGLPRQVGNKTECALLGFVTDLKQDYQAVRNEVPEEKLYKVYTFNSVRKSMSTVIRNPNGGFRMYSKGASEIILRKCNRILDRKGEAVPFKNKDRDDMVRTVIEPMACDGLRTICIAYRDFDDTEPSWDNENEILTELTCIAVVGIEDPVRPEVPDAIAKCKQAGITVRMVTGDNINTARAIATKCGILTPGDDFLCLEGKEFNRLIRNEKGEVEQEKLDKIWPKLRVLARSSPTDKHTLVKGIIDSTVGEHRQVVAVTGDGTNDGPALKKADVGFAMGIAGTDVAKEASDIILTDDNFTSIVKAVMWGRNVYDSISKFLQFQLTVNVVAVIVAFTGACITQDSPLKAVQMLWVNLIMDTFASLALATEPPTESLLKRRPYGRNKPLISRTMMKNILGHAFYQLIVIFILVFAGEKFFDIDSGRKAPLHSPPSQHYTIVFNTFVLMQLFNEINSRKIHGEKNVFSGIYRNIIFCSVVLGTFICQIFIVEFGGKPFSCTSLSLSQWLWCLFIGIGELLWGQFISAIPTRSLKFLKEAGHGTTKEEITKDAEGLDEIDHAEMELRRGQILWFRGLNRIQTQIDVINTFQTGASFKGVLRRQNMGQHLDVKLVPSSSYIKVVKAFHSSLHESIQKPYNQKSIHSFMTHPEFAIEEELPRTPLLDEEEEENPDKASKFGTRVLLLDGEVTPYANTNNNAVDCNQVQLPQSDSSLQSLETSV
UniProt O75348, whole entry, looked up: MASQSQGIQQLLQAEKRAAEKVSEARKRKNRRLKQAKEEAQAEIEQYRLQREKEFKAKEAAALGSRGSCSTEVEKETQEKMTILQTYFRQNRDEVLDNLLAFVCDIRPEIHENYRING
UniProt P56378: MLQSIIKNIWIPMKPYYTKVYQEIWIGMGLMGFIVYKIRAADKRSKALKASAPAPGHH
UniProt Q96IX5: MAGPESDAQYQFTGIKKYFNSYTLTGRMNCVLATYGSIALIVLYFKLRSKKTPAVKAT
UniProt Q9UII2: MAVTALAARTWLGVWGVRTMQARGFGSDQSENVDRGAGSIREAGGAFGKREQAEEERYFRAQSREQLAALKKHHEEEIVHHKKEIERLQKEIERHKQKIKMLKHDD
UniProt P35670: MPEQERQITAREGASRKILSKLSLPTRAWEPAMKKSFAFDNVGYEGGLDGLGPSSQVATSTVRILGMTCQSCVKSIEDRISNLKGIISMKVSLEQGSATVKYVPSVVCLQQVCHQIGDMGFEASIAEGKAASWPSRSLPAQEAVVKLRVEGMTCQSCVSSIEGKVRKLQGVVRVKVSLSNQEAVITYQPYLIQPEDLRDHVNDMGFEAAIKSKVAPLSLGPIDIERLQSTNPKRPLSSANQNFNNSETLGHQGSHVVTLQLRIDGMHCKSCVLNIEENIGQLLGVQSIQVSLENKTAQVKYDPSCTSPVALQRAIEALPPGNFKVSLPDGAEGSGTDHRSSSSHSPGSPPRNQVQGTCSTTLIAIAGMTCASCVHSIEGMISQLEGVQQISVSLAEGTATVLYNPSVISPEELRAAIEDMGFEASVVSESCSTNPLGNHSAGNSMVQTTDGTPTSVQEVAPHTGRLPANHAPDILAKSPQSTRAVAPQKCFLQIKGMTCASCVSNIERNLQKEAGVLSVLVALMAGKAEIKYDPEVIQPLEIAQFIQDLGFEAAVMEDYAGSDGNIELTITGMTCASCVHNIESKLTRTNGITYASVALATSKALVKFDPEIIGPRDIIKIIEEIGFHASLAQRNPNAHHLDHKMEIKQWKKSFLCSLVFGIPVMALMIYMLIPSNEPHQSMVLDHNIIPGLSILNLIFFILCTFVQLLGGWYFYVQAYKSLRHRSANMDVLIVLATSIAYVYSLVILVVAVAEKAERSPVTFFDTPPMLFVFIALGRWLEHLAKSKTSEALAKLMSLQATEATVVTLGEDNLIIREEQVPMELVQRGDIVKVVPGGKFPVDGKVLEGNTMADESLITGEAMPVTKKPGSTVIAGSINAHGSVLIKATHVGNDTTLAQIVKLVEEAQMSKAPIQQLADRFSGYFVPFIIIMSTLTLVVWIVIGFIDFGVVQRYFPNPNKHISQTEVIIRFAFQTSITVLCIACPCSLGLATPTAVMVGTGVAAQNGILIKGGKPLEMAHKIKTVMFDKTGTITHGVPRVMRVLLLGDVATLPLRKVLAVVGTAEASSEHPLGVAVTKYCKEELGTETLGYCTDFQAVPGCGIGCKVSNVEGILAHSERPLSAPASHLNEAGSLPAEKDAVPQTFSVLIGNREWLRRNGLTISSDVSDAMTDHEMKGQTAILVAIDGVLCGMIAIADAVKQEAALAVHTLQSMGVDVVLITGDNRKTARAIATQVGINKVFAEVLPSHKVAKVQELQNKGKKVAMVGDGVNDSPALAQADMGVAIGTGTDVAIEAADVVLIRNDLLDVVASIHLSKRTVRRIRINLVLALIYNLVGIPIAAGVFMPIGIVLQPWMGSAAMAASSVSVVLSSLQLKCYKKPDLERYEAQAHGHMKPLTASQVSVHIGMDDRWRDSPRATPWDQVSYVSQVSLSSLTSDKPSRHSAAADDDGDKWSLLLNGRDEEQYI
UniProt Q96BY7: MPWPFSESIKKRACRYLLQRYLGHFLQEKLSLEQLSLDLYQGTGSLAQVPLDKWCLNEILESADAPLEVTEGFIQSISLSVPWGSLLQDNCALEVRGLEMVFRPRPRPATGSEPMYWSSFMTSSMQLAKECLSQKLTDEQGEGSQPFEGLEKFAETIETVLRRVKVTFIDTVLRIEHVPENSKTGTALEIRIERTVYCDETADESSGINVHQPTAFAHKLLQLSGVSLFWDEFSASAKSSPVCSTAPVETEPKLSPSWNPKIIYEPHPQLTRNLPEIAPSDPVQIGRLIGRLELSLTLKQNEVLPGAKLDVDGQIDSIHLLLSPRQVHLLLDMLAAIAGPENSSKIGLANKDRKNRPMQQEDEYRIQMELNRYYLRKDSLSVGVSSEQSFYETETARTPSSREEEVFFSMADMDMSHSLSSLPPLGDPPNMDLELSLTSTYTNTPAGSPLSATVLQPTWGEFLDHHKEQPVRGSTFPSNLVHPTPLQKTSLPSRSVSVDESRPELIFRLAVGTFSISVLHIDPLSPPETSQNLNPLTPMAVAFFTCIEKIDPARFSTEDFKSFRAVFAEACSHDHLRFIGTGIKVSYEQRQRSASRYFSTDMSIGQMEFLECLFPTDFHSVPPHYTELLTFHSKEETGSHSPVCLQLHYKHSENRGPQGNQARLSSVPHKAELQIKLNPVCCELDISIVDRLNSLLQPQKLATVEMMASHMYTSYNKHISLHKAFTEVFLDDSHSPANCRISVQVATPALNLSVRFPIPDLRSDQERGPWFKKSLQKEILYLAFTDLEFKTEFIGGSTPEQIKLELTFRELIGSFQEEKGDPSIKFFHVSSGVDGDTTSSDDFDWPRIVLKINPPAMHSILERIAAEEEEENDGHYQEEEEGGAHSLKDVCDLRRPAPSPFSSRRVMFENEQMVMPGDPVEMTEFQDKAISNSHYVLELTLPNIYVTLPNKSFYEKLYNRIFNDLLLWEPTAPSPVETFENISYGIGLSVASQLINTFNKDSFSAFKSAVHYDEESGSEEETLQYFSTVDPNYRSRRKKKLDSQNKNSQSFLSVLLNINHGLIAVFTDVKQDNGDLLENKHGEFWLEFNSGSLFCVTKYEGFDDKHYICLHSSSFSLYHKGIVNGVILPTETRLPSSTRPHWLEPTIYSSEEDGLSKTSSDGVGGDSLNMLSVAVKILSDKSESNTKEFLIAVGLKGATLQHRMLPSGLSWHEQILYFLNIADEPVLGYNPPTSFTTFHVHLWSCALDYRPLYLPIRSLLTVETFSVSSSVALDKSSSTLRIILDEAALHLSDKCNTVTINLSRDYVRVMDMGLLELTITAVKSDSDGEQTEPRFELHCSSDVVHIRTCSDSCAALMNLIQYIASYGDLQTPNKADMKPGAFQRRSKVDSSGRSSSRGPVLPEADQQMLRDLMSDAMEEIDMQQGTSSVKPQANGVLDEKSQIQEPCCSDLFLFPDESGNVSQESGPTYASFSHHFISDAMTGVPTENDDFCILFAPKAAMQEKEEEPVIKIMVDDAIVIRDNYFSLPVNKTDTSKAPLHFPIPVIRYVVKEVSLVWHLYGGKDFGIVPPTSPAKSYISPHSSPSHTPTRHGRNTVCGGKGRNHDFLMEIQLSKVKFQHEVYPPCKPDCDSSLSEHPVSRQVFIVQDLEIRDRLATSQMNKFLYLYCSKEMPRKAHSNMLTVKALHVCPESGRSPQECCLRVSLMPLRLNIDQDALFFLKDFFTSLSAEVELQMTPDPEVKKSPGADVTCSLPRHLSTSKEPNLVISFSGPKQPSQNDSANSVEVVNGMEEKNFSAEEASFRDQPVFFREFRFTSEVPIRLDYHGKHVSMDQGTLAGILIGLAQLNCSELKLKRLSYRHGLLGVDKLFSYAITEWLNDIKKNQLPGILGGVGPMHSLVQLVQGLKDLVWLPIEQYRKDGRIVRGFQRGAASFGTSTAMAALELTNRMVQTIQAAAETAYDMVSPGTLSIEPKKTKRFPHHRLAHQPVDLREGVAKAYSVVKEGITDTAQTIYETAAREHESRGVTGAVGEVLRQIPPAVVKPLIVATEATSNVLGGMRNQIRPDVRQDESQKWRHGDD
UniProt Q6VMQ6: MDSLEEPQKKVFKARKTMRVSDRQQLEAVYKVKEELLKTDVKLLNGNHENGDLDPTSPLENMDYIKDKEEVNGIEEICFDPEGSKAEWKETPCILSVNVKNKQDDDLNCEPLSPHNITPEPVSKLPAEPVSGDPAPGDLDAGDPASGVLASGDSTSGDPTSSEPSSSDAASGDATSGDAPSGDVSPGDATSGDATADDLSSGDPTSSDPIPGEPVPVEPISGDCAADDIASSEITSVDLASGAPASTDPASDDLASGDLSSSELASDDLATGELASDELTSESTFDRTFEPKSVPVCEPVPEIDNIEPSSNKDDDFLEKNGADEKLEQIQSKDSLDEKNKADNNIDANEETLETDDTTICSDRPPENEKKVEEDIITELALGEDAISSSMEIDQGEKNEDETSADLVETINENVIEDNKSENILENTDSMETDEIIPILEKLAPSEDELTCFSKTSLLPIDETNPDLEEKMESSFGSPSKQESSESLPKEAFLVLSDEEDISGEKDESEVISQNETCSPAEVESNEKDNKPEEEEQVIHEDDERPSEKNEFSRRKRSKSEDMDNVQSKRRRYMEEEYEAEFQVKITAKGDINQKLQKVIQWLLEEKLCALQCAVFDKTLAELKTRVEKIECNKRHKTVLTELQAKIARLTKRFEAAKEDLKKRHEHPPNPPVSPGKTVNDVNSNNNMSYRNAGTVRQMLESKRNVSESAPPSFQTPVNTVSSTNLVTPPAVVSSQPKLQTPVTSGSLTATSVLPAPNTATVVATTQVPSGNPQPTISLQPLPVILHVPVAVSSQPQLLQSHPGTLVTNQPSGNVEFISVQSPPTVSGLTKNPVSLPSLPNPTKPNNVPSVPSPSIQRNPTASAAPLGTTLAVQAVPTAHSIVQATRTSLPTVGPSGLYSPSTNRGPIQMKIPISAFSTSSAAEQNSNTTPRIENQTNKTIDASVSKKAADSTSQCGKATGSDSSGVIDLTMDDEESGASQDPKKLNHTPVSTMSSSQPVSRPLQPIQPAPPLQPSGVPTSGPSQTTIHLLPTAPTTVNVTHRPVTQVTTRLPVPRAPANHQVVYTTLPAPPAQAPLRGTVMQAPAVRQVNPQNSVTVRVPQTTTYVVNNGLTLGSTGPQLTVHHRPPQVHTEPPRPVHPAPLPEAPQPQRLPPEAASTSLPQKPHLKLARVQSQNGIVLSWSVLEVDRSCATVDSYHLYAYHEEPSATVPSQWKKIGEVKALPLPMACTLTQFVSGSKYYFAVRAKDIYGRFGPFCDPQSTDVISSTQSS

[2] = compound: CC1=C(C=C(C=C1)NC(=O)C2=CC(=CC=C2)N(C)C)NC(=O)C3=CC=C(C=C3)O
Method in brief: as §1

[3] = compound: CC1=CC=C(C=C1)SC2=C3C=C(SC3=CN=C2)C(=O)N
Method in brief: as §1

[4] = compound: CC1=NC(=CC=C1)C2=C(N=C(N2)C(C)(C)C)C3=CC4=NC=CN=C4C=C3
Method in brief: as §1

Nexturastat A = compound: CCCCN(Cc1ccc(C(=O)NO)cc1)C(=O)Nc1ccccc1 [Nexturastat A]
Method in brief: as §1

vemurafenib = compound: CCCS(=O)(=O)Nc1ccc(F)c(C(=O)c2c[nH]c3ncc(-c4ccc(Cl)cc4)cc23)c1F [vemurafenib]
Method in brief: as §1

[5] = compound: CCCS(=O)(=O)Nc1ccc(F)c(C(=O)c2c[nH]c3ncc(Cl)cc23)c1F
Method in brief: as §1

[6] = compound: CCCc1cc(C)[nH]c(=O)c1CNC(=O)c1cc(-c2ccnc(N3CCN(C)CC3)c2)cc2c1cnn2C(C)C
Method in brief: as §1

givinostat = compound: CCN(CC)Cc1ccc2cc(COC(=O)Nc3ccc(C(=O)NO)cc3)ccc2c1 [givinostat]
Method in brief: as §1

barasertib = compound: CCN(CCCOc1ccc2c(Nc3cc(CC(=O)Nc4cccc(F)c4)[nH]n3)ncnc2c1)CCOP(=O)(O)O [barasertib]
Method in brief: as §1

Measured: log2 fold change

ATF2 (UniProt P15336)
inactive: [1] 0.006 | [2] 0.042 | [3] -0.002 | [4] 0.065 | Nexturastat A -0.236 | vemurafenib -0.013 | [5] 0.002 | [6] -0.317 | givinostat -0.09 | barasertib -0.011

ATP6V0D1 (UniProt P61421)
inactive: [1] 0.02 | [2] -0.113 | [3] 0.022 | [4] -0.075 | Nexturastat A 0.109 | vemurafenib -0.037 | [5] -0.033 | [6] 0.014 | givinostat -0.034 | barasertib 0.033

ARL8A (UniProt Q96BM9)
inactive: [1] 0.084 | [2] 0.031 | [3] 0.036 | [4] 0.033 | Nexturastat A -0.003 | vemurafenib -0.047 | [5] -0.046 | [6] 0.409 | givinostat 0.095 | barasertib 0.025

ARPC5 (UniProt O15511)
inactive: [1] -0.044 | [2] 0 | [3] 0.006 | [4] -0.011 | Nexturastat A -0.065 | vemurafenib 0.01 | [5] -0.014 | [6] -0.057 | givinostat 0.019 | barasertib 0.026

ATP6V1D (UniProt Q9Y5K8)
inactive: [1] -0.007 | [2] 0.019 | [3] -0.035 | [4] 0.015 | Nexturastat A -0.024 | vemurafenib 0.005 | [5] -0.018 | [6] -0.013 | givinostat 0.006 | barasertib 0.014

ATG16L1 (UniProt Q676U5)
inactive: [1] -0.019 | [2] 0.029 | [3] 0.008 | [4] 0.032 | Nexturastat A -0.011 | vemurafenib 0.019 | [5] -0.013 | [6] -0.028 | givinostat -0.027 | barasertib -0.011

ATG4C (UniProt Q96DT6)
inactive: [1] -0.067 | [2] 0.087 | [3] -0.011 | [4] -0.025 | Nexturastat A 0.043 | vemurafenib 0.015 | [5] 0.043 | [6] -0.195 | givinostat 0.07 | barasertib 0.021

ATAD3A isoform 2 (UniProt Q9NVI7)
inactive: [1] -0.04 | [2] 0.005 | [3] 0.007 | [4] 0.017 | Nexturastat A 0.207 | vemurafenib 0.033 | [5] 0.052 | [6] 0 | givinostat 0.045 | barasertib 0.009

ATP2B1 isoform 1 (UniProt P20020)
inactive: [1] -0.02 | [2] 0.02 | [3] -0.003 | [4] 0.011 | Nexturastat A -0.048 | vemurafenib -0.004 | [5] -0.03 | [6] -0.043 | givinostat -0.001 | barasertib -0.008

ARMC6 (UniProt Q6NXE6)
inactive: [1] 0.069 | [2] 0.068 | [3] -0.013 | [4] -0.078 | Nexturastat A 0.361 | vemurafenib 0.016 | [5] 0.096 | [6] 0.072 | givinostat 0.14 | barasertib 0.048

ATP11A (UniProt P98196)
inactive: [1] -0.033 | [2] -0.022 | [3] -0.039 | [4] -0.007 | Nexturastat A -0.005 | vemurafenib 0.032 | [5] -0.027 | [6] -0.035 | givinostat -0.007 | barasertib -0.033

ATE1 isoform 2 (UniProt O95260)
inactive: [1] 0.02 | [2] 0.004 | [3] 0.059 | [4] 0.026 | Nexturastat A -0.016 | vemurafenib 0.02 | [5] 0.108 | [6] -0.021 | givinostat -0.05 | barasertib 0.072

ATP5PO (UniProt P48047)
inactive: [1] -0.02 | [2] 0.048 | [3] 0.008 | [4] 0.01 | Nexturastat A 0 | vemurafenib 0.027 | [5] -0.015 | [6] -0.018 | givinostat 0.001 | barasertib -0.004

ASPH (UniProt Q12797)
inactive: [1] 0.024 | [2] -0.03 | [3] -0.086 | [4] -0.104 | Nexturastat A 0.165 | vemurafenib -0.085 | [5] -0.051 | [6] 0.034 | givinostat 0.116 | barasertib -0.039

ATP2B4 (UniProt P23634)
inactive: [1] -0.056 | [2] -0.021 | [3] -0.03 | [4] -0.031 | Nexturastat A 0.038 | vemurafenib -0.015 | [5] -0.032 | [6] -0.014 | givinostat -0.014 | barasertib -0.011

ATP1B2 (UniProt P14415)
inactive: [1] 0.16 | [2] -0.062 | [3] 0.23 | [4] 0.091 | Nexturastat A 0.026 | vemurafenib -0.061 | [5] -0.101 | [6] -0.1 | givinostat 0.02 | barasertib 0.061

ATP5PD (UniProt O75947)
inactive: [1] -0.024 | [2] 0.022 | [3] -0.007 | [4] 0.002 | Nexturastat A -0.046 | vemurafenib -0.027 | [5] -0.035 | [6] -0.027 | givinostat -0.034 | barasertib -0.016

ATP6V0A1 isoform 3 (UniProt Q93050)
inactive: [1] 0.038 | [2] -0.034 | [3] -0.006 | [4] -0.051 | Nexturastat A 0.198 | vemurafenib 0.017 | [5] 0 | [6] 0.032 | givinostat 0.031 | barasertib 0.006

ATP6V1G1 (UniProt O75348)
inactive: [1] -0.049 | [2] 0.002 | [3] 0.037 | [4] 0.022 | Nexturastat A -0.009 | vemurafenib -0.092 | [5] 0.006 | [6] -0.023 | givinostat -0.005 | barasertib 0.006

ATP13A1 (UniProt Q9HD20)
inactive: [1] 0.028 | [2] -0.025 | [3] -0.009 | [4] 0.004 | Nexturastat A -0.078 | vemurafenib 0.055 | [5] 0.025 | [6] -0.015 | givinostat 0.053 | barasertib 0.007

Reprinted at random: 2 records from the list
ATP11A (UniProt P98196)
inactive: [1] -0.033 | [2] -0.022 | [3] -0.039 | [4] -0.007 | Nexturastat A -0.005 | vemurafenib 0.032 | [5] -0.027 | [6] -0.035 | givinostat -0.007 | barasertib -0.033

ATP6V0A1 isoform 3 (UniProt Q93050)
inactive: [1] 0.038 | [2] -0.034 | [3] -0.006 | [4] -0.051 | Nexturastat A 0.198 | vemurafenib 0.017 | [5] 0 | [6] 0.032 | givinostat 0.031 | barasertib 0.006

Next results follow.

ATP5MPL (UniProt P56378)
inactive: [1] 0.028 | [2] -0.036 | [3] 0 | [4] -0.027 | Nexturastat A 0.034 | vemurafenib -0.027 | [5] 0.001 | [6] 0.004 | givinostat -0.055 | barasertib -0.01

ATP5MD (UniProt Q96IX5)
inactive: [1] 0.041 | [2] -0.073 | [3] 0.021 | [4] 0.063 | Nexturastat A -0.055 | vemurafenib -0.071 | [5] -0.004 | [6] 0.133 | givinostat -0.11 | barasertib 0.05

ARMC1 (UniProt Q9NVT9)
inactive: [1] 0.01 | [2] 0.021 | [3] 0.039 | [4] 0.017 | Nexturastat A -0.041 | vemurafenib 0.043 | [5] 0.063 | [6] -0.028 | givinostat 0.045 | barasertib 0.041

ATP6V0A2 (UniProt Q9Y487)
inactive: [1] 0.021 | [2] 0.016 | [3] 0.006 | [4] -0.013 | Nexturastat A 0.024 | vemurafenib 0.026 | [5] 0.014 | [6] 0.014 | givinostat 0.02 | barasertib 0.008

ATP5IF1 (UniProt Q9UII2)
inactive: [1] -0.035 | [2] 0.009 | [3] -0.005 | [4] 0.021 | Nexturastat A -0.041 | vemurafenib -0.078 | [5] -0.043 | [6] -0.022 | givinostat -0.005 | barasertib 0.026

ATIC (UniProt P31939)
inactive: [1] 0.083 | [2] -0.022 | [3] 0.059 | [4] 0.022 | Nexturastat A -0.076 | vemurafenib 0.025 | [5] 0.052 | [6] 0.019 | givinostat -0.036 | barasertib 0.013

ATP7B (UniProt P35670)
inactive: [1] -0.005 | [2] -0.113 | [3] 0.028 | [4] 0.032 | Nexturastat A -0.013 | vemurafenib -0.001 | [5] 0.032 | [6] 0.036 | givinostat -0.005 | barasertib -0.02

ATG2B (UniProt Q96BY7)
inactive: [1] -0.057 | [2] 0.049 | [3] 0.11 | [4] -0.048 | Nexturastat A 0.017 | vemurafenib -0.01 | [5] 0.148 | [6] -0.041 | givinostat 0.004 | barasertib 0.014

ATP7A isoform 3 (UniProt Q04656)
inactive: [1] -0.003 | [2] -0.008 | [3] 0.011 | [4] 0.015 | Nexturastat A 0.047 | vemurafenib 0.004 | [5] 0.026 | [6] -0.008 | givinostat -0.002 | barasertib 0.015

ASPSCR1 isoform 2 (UniProt Q9BZE9)
inactive: [1] -0.002 | [2] -0.014 | [3] 0.041 | [4] 0.031 | Nexturastat A -0.001 | vemurafenib 0.043 | [5] 0.113 | [6] -0.008 | givinostat -0.004 | barasertib 0.058

ATAD3B (UniProt Q5T9A4)
inactive: [1] -0.07 | [2] -0.022 | [3] 0.003 | [4] -0.009 | Nexturastat A 0.236 | vemurafenib -0.024 | [5] 0.042 | [6] 0.058 | givinostat 0.05 | barasertib -0.019

ATF1 (UniProt P18846)
inactive: [1] -0.066 | [3] -0.113 | Nexturastat A -0.026 | vemurafenib 0.035 | [5] -0.016 | [6] 0.002 | givinostat 0.003 | barasertib 0.079

ATF7IP isoform 4 (UniProt Q6VMQ6)
inactive: [4] -0.078 | Nexturastat A 0.328 | vemurafenib 0.086 | [6] 0.053 | givinostat 0.149 | barasertib -0.005
